Measurements as given in patent publication US3993683A, “Biphenylyl derivatives” (Boehringer Ingelheim GmbH, priority 1974, dated 1976).
The name of at least one read-out is uncertain.

System: white mice
Assay: Acute toxicity after oral administration of a single dose
Type: in vivo
Conditions: observation time 14 days, 20160 min
Protocol: The acute toxicity of the test compounds was determined in white mice (observation time: 14 days) after oral administration of a single dose.

COC(=O)C[S+]([O-])C(C)c1ccc(-c2ccccc2F)cc1 (single isomer, unassigned) [A, [1-(2'-fluoro-4-biphenylyl)-ethylsulfinyl]-acetic acid methyl ester]
acute toxicity: > 2000 mgm/kg

COC(=O)C[S+]([O-])C(C)c1ccc(-c2ccccc2F)cc1 (single isomer, unassigned) [B, [1-(2'-fluoro-4-biphenylyl)-ethylsulfinyl]-acetic acid methyl ester]
acute toxicity: > 500 mgm/kg
